Source: PMC5996148
The other results are listed elsewhere or left out. For some of these results: The source does not settle which construct or isoform was used.

Chains of the proteins cited; added tags and fusions are not shown.
UniProt Q9NWU2, whole entry: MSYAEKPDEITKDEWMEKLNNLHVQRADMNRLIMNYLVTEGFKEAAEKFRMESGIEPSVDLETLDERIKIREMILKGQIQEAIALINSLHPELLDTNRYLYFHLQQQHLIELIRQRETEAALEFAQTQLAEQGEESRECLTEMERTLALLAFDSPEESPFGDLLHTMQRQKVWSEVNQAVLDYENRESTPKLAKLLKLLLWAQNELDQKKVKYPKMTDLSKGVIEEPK

Tests used:
Assay in all cases: protein microarray (ProtoArray v5.0), streptavidin-Alexa Fluor 647
Settings in all cases: 3'-biotin; 20 mM Tris (pH 7.5), 5 mM MgCl2, 100 mM KCl, 0.1% Tween-20, A/T-rich and random oligonucleotide blockers; temperature not stated; high values mean tight binding
C1orf80 (human) = system: C1orf80 (human)
C1orf90 (human) = system: C1orf90 (human)
C1orf91 (human) = system: C1orf91 (human)
C1orf94 (human) = system: C1orf94 (human)
C20orf11 = C20orf11 (UniProt Q9NWU2)
C20orf114 (human) = system: C20orf114 (human)
C20orf121 (human) = system: C20orf121 (human)
C20orf141 (human) = system: C20orf141 (human)
C20orf142 (human) = system: C20orf142 (human)
C20orf149 (human) = system: C20orf149 (human)

GGGAGGCTGAGGCAGG [G4-1 biotinylated (PQS2)]
binding signal (C1orf80 (human)): -0.295 z-score | binding signal (C1orf90 (human)): -0.299 z-score | binding signal (C1orf91 (human)): -0.351 z-score | binding signal (C1orf94 (human)): -0.277 z-score | binding signal (C20orf11): -0.338 z-score | binding signal (C20orf114 (human)): -0.354 z-score | binding signal (C20orf121 (human)): -0.294 z-score | binding signal (C20orf141 (human)): -0.331 z-score | binding signal (C20orf142 (human)): -0.353 z-score | binding signal (C20orf149 (human)): -0.302 z-score
